Test results reported in PubChem BioAssay AID540256 (National Center for Advancing Translational Sciences (NCATS), 2011).
In all, about 300,000 compounds went through this assay and about 3,700 (1.2%) were called active. The inconclusive results got no clear call from the source; some entries with a clear call stand among them for comparison. Calls follow the shape of the full dose curve; tested in HEK293 cells. A potency beside an inconclusive call is a rough fit, not a confirmed value.
% is scaled to controls: 0 for no effect and ±100 for the full control effect; potency is read from the fitted curve at half-maximal effect.

Test: qHTS for Inhibitors of binding or entry into cells for Lassa Virus; also: nearly all actives have a fitted effect of over 50% in size
Settings: Lassa virus pseudotype entry inhibition, cell reporter; activity change, negative = inhibition: at 37.9 µM (top of the series) unless noted
In the case of `COc1ccc(N2CCN(c3ncnc4sc(C(=O)NCC5CCCO5)c(C)c34)CC2)cc1` (stereo not given), the Potency is reported as inconclusive: 31.6 µM [inhibitor, partial curve, poor fit].
With `Cc1nc(Nc2nc3c(c(=O)[nH]2)CCC3)nc2ccccc12` the Potency was inconclusive: 8.2 µM [inhibitor, partial curve, poor fit].
For `COc1ccc(-c2cc(C(=O)NCC(C)C)no2)cc1`, the Potency was inconclusive: 11.6 µM [inhibitor, partial curve, poor fit].
In the case of `Cc1cccc(Cn2cc(C(=O)Nc3ccc(F)c(C(F)(F)F)c3)ccc2=O)c1`, the “activity change, negative = inhibition” value is reported as inactive: -22.7% [at 46.1 µM].
In the case of `COc1ccc(NC(=O)Cc2ccccc2F)cn1`, the Potency is reported as inconclusive: 1.41 µM [inhibitor, partial curve, poor fit].
With `CCOc1cc(C(=O)CSc2nnc(CNc3ccc(Cl)cc3)o2)ccc1NC(=O)CC` the Potency was inconclusive: 35.5 µM [inhibitor, single point].
In the case of `Cc1cc(Cl)c(OCCOCCN2CCCC(C)C2)c(Br)c1` (stereo not given), the Potency is reported as active: 12.6 µM.
With `c1ccc(N2CCN(c3ccccc3)C2c2ccncc2)cc1` the “activity change, negative = inhibition” value was inactive: 1.32%.
With `COc1ccc(C2C(C(=O)NCCN3CCOCC3)c3ccccc3C(=O)N2C)cc1OC` (stereo not given) the “activity change, negative = inhibition” value was inactive: 10.7%.
For `CC(C)[C@H](NS(=O)(=O)c1ccc2c(c1)OCCO2)C(=O)OCC(=O)Nc1ccccc1`, the Potency was inconclusive: 0.891 µM [inhibitor, single point].
With `O=C(Cc1ccc(Br)cc1)Nc1cccc(-c2cn3c(n2)SCC3)c1` the Potency was inconclusive: 35.5 µM [inhibitor, single point].
For `Oc1c(Cl)cc(Cl)cc1C=Nc1ccccc1N1CCCC1`, the “activity change, negative = inhibition” value was inactive: -12.4%.
For `CCOc1ccc2nc(NC(=O)CSc3nnnn3C3CCCCC3)sc2c1`, the “activity change, negative = inhibition” value was inactive: -19.4%.
With `CCCCN(CC)CCNC(=O)c1cc2c(=O)oc3ccc(C)cc3c2s1` the “activity change, negative = inhibition” value was inactive: 7.06% [at 46.1 µM].
With `O=C(OC1CCCCC1)c1ccc(NC(=O)c2ccco2)cc1` the Potency was inconclusive: 17.8 µM [inhibitor, single point].
In the case of `CCOc1ccc2nc(NC(=O)c3ccc(OCC4CCCO4)cc3)sc2c1` (stereo not given), the “activity change, negative = inhibition” value is reported as inactive: -14.1%.
In the case of `CC(=O)Nc1ccc(-c2csc(NCCc3ccccc3)n2)cc1`, the Potency is reported as inconclusive: 35.5 µM [inhibitor, single point].
In the case of `COC(=O)c1cc(C)nc2c1c(=O)nc(SCc1ccccc1F)n2C1CC1`, the “activity change, negative = inhibition” value is reported as inactive: -15% [at 46.1 µM].
For `COc1ccc([N+](=O)[O-])cc1COc1cc(C)cc2oc(=O)cc(-c3ccccc3)c12`, the Potency was inconclusive: 28.2 µM [inhibitor, single point].
For `COc1cc(CNCc2cccnc2)ccc1OCc1ccccc1`, the Potency was inconclusive: 8.91 µM [activator, partial curve].
